The record followed here is article PMC8016666, “A novel combination therapy targeting ubiquitin-specific protease 5 in MYCN-driven neuroblastoma” (Oncogene, 2021).

The chains behind the UniProt entries cited, without tags or fusion partners.
UniProt P04198: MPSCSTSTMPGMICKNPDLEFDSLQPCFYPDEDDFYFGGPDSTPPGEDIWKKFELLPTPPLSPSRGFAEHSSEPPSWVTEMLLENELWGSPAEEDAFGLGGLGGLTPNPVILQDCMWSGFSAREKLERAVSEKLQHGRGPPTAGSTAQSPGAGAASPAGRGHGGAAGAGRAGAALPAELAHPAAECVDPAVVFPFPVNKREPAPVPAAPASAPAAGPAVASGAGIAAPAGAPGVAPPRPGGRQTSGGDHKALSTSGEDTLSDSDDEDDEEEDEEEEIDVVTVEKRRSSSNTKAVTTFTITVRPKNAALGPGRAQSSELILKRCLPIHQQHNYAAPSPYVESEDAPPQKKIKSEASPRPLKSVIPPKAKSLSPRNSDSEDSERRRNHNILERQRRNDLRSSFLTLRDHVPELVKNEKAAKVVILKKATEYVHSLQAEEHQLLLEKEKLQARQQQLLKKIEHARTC
UniProt P45974: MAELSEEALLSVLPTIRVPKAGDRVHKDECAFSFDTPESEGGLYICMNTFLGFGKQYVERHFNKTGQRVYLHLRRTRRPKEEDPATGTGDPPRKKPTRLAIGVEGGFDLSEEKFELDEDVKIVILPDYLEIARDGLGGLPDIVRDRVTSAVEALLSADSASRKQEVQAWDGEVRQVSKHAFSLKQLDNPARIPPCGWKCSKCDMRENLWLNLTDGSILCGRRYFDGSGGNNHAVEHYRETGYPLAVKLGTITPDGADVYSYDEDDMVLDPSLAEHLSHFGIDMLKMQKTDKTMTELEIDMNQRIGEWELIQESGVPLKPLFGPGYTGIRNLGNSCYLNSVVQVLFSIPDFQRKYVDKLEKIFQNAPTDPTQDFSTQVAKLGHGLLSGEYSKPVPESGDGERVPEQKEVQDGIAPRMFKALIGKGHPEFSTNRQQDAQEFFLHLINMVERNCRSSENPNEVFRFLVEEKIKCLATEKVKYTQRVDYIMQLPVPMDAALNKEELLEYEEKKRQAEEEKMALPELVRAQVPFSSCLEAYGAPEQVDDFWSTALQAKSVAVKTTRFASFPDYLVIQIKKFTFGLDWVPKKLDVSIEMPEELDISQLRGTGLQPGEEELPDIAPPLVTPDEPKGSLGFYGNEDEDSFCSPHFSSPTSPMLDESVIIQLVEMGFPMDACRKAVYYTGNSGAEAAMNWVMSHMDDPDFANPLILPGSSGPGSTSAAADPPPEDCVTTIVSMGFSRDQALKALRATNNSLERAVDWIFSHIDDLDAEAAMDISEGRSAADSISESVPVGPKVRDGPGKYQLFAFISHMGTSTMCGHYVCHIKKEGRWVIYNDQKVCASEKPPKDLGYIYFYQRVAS

These are yes or no findings as the source states them, for the method shown. Binding seen in cells or lysates may run through a third protein. Some results given as binding are weak or reduced against the parent protein; the word gives no strength.

In the experiment the target is Endogenous MYCN (human (endogenous in Kelly and SK-N-BE(2)-C)) (UniProt P04198). Put plainly: co-IP; total protein from Kelly and SK-N-BE(2)-C cells; immunoprecipitation with IgG or MYCN antibody, immunoblot with USP5 and MYCN antibodies.

Consider “Endogenous USP5 (ubiquitin-specific protease 5) (from UniProt P45974 1-858) (enzyme)”, for which the binding result is on record as “binds”.
